Data as given in US20250145718A1.
Results are given in words; binding and its absence hold for the method and conditions named. Some entries that bind do so weakly or less than the wild type.

By UniProt entry, the sequences of proteins in these tests, tags left out. Where a name states a change or a piece, a line headed by the entry shows the natural chain unless it says otherwise.
UniProt Q9NZQ7: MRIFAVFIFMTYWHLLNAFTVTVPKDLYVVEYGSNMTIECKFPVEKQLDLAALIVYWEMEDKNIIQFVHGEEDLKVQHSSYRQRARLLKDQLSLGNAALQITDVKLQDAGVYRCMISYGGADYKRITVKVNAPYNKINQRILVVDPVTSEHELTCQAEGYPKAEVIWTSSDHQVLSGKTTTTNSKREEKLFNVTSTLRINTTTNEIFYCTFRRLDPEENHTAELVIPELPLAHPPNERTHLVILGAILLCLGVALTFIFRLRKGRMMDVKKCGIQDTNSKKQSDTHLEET
UniProt Q07011: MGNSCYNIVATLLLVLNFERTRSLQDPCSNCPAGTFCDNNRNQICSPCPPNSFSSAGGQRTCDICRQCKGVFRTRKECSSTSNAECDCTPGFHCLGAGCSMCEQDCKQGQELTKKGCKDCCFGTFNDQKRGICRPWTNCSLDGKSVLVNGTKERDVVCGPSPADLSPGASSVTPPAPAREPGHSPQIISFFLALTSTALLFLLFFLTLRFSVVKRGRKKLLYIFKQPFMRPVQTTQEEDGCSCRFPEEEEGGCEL

Legend:
[1] = target: PD-L1 (Biacore kinetics, Example 1.5) (UniProt Q9NZQ7); assay: SPR (Biacore)
[2] = target: 4-1BB (Octet Red 96 kinetics, Example 2.2(3)) (human) (UniProt Q07011); assay: BLI (Octet Red 96)

Binder | binding [1] | binding [2]
H12 (Hu1210-41; Hu1210 VH.4d x Hu1210 VK.1) (antibody, V domains shown) VH: EVQLVESGGGLVQPGGSLRLSCAASGFTFSSYDMSWVRQAPGKSLEWVATISDAGGYIYYSDSVKGRFTISRDNAKNSLYLQMNSLRDEDTAVYICAREFGKRYALDYWGQGTTVTVSS VL: DIQMTQSPSSLSASVGDRVTITCKASQDVTPAVAWYQQKPGKAPKLLIYSTSSRYTGVPSRFSGSGSGTDFTFTISSLQPEDIATYYCQQHYTTPLTFGQGTKLEIK | binds | –
41B01 (anti-4-1BB monoclonal antibody) (antibody, V domains shown) VH: EVQLLESGGGLVQPGGSLRLSCAASGFTFSSYDMSWVRQAPGKGLEWVSWISYSGGSIYYADSVKGRFTISRDNSKNTLYLQMNSLRAEDTAVYYCARDGQRNSMREFDYWGQGTLVTVSS VL: QSVLTQPPSASGTPGRRVTISCSGSSSNIGNNYVTWYQQLPGTAPKLLIYADSHRPSGVPDRFSGSKSGTSASLAISGLRSEDEADYYCATWDYSLSGYVFGGGTKLTVL | – | binds

Second part, the binder after the results:

binding [1] | binding [2] | Binder
binds | – | B6 (anti-PD-L1 clone derived from Hu1210-41) (antibody, V domains shown) VH: EVQLVESGGGLVQPGGSLRLSCAASGFTFSSYDMSWVRQAPGKSLEWVATISDAGGYIYYRDSVKGRFTISRDNAKNSLYLQMNSLRDEDTAVYICARELPWRYALDYWGQGTTVTVSS VL: DIQMTQSPSSLSASVGDRVTITCKASQDVTPAVAWYQQKPGKAPKLLIYSTSSRYTGVPSRFSGSGSGTDFTFTISSLQPEDIATYYCQQHYTTPLTFGQGTKLEIK
– | binds | 41B02 (anti-4-1BB monoclonal antibody) (antibody, V domains shown) VH: EVQLLESGGGLVQPGGSLRLSCAASGFTFSGYDMSWVRQAPGKGLEWVSVIYPDDGNTYYADSVKGRFTISRDNSKNTLYLQMNSLRAEDAAVYYCAKHGGQKPTTKSSSAYGMDGWGQGTLVTVSS VL: QSVLTQPPSASGTPGRRVTISCSGSSSNIGNNYVTWYQQLPGTAPKLLIYADSHRPSGVPDRFSGSKSGTSASLAISGLRSEDEADYYCATWDYSLSGYVFGGGTKLTVL
